Taken from: PubChem BioAssay AID1224830 (NIAID, 2016)

Purpose: 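Genes whose knock-down alters the TNF-alpha reporter response to LPS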 (primary screen)
Cells: human THP-1 monocytic leukaemia cells, TNF dual-luciferase reporter clone, PMA-differentiated to macrophage-like cells
Reagent: siRNA pool against human genes, 50 nM
Duration: LPS for 4 h, given about 3 days after siRNA transfection
Challenge: bacterial LPS (TLR4 ligand), 10 ng/ml
Detection: 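TNF firefly reporter luminescence divided by renilla, normalised to the plate median, then turned into a robust z-score for each replicate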
Direction: TNF reporter robust z-score: higher = stronger TNF reporter response to LPS
Hit rule: 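a well is active when its z-score exceeds 2.8 or falls below -1.5; control wells carry no call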
In all, the deposit lists about 18,000 reagents; shown is an unselected part. In the full data, about 2,900 (16%) were called active. 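Calls are made per well; low scores hint the gene aids the LPS response, high scores that it dampens it.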 Repeated entries: four replicate wells of each siRNA pool.

PPARA (peroxisome proliferator activated receptor alpha) → TNF reporter robust z-score: 0.55; outcome: inactive
PPARA (peroxisome proliferator activated receptor alpha) → TNF reporter robust z-score: -0.44; outcome: inactive
PPARA (peroxisome proliferator activated receptor alpha) → TNF reporter robust z-score: 0.73; outcome: inactive
ZNF235 (zinc finger protein 235) → TNF reporter robust z-score: -0.7; outcome: inactive
ZNF235 (zinc finger protein 235) → TNF reporter robust z-score: -0.66; outcome: inactive
ZNF235 (zinc finger protein 235) → TNF reporter robust z-score: -0.64; outcome: inactive
ZNF235 (zinc finger protein 235) → TNF reporter robust z-score: -0.1; outcome: inactive
OTUD6B (OTU deubiquitinase 6B) → TNF reporter robust z-score: 0.59; outcome: inactive
OTUD6B (OTU deubiquitinase 6B) → TNF reporter robust z-score: -0.08; outcome: inactive
OTUD6B (OTU deubiquitinase 6B) → TNF reporter robust z-score: -0.63; outcome: inactive
OTUD6B (OTU deubiquitinase 6B) → TNF reporter robust z-score: -0.75; outcome: inactive
RFFL → TNF reporter robust z-score: 1.35; outcome: inactive
RFFL → TNF reporter robust z-score: 1.06; outcome: inactive
RFFL → TNF reporter robust z-score: -1.47; outcome: inactive
RFFL → TNF reporter robust z-score: -0.88; outcome: inactive
COA5 (cytochrome c oxidase assembly factor 5) → TNF reporter robust z-score: 1.89; outcome: inactive
COA5 (cytochrome c oxidase assembly factor 5) → TNF reporter robust z-score: 1.69; outcome: inactive
COA5 (cytochrome c oxidase assembly factor 5) → TNF reporter robust z-score: 1.37; outcome: inactive
COA5 (cytochrome c oxidase assembly factor 5) → TNF reporter robust z-score: -0.46; outcome: inactive
C3orf36 (chromosome 3 putative open reading frame 36) → TNF reporter robust z-score: -0.12; outcome: inactive
C3orf36 (chromosome 3 putative open reading frame 36) → TNF reporter robust z-score: -0.16; outcome: inactive
C3orf36 (chromosome 3 putative open reading frame 36) → TNF reporter robust z-score: -0.09; outcome: inactive
C3orf36 (chromosome 3 putative open reading frame 36) → TNF reporter robust z-score: 0.82; outcome: inactive
SLC19A2 → TNF reporter robust z-score: 1.12; outcome: inactive
SLC19A2 → TNF reporter robust z-score: 2.22; outcome: inactive
SLC19A2 → TNF reporter robust z-score: 1.66; outcome: inactive
SLC19A2 → TNF reporter robust z-score: 1.56; outcome: inactive
LRCH3 → TNF reporter robust z-score: -0.63; outcome: inactive
LRCH3 → TNF reporter robust z-score: -0.45; outcome: inactive
LRCH3 → TNF reporter robust z-score: -0.19; outcome: inactive
LRCH3 → TNF reporter robust z-score: -0.5; outcome: inactive
MSANTD3 (Myb/SANT DNA binding domain containing 3) → TNF reporter robust z-score: 0.55; outcome: inactive
MSANTD3 (Myb/SANT DNA binding domain containing 3) → TNF reporter robust z-score: 1.59; outcome: inactive
MSANTD3 (Myb/SANT DNA binding domain containing 3) → TNF reporter robust z-score: 1.6; outcome: inactive
MSANTD3 (Myb/SANT DNA binding domain containing 3) → TNF reporter robust z-score: 0.85; outcome: inactive
ZNF304 (zinc finger protein 304) → TNF reporter robust z-score: 0.48; outcome: inactive
ZNF304 (zinc finger protein 304) → TNF reporter robust z-score: -0.44; outcome: inactive
ZNF304 (zinc finger protein 304) → TNF reporter robust z-score: -0.91; outcome: inactive
ZNF304 (zinc finger protein 304) → TNF reporter robust z-score: 0.05; outcome: inactive
CACNG4 (calcium voltage-gated channel auxiliary subunit gamma 4) → TNF reporter robust z-score: -0.59; outcome: inactive
CACNG4 (calcium voltage-gated channel auxiliary subunit gamma 4) → TNF reporter robust z-score: 0.24; outcome: inactive
CACNG4 (calcium voltage-gated channel auxiliary subunit gamma 4) → TNF reporter robust z-score: -0.35; outcome: inactive
CACNG4 (calcium voltage-gated channel auxiliary subunit gamma 4) → TNF reporter robust z-score: -0.82; outcome: inactive
SLC25A14 → TNF reporter robust z-score: -1.59; outcome: active
SLC25A14 → TNF reporter robust z-score: -1.75; outcome: active
SLC25A14 → TNF reporter robust z-score: -2.17; outcome: active
SLC25A14 → TNF reporter robust z-score: -1.48; outcome: inactive
GAB1 (GRB2 associated binding protein 1) → TNF reporter robust z-score: 1.04; outcome: inactive
GAB1 (GRB2 associated binding protein 1) → TNF reporter robust z-score: 0.13; outcome: inactive
GAB1 (GRB2 associated binding protein 1) → TNF reporter robust z-score: -0.37; outcome: inactive
GAB1 (GRB2 associated binding protein 1) → TNF reporter robust z-score: -0.16; outcome: inactive
RASSF4 (Ras association domain family member 4) → TNF reporter robust z-score: -0.89; outcome: inactive
RASSF4 (Ras association domain family member 4) → TNF reporter robust z-score: 0.55; outcome: inactive
RASSF4 (Ras association domain family member 4) → TNF reporter robust z-score: 0.03; outcome: inactive
RASSF4 (Ras association domain family member 4) → TNF reporter robust z-score: 0.62; outcome: inactive
DFFA (DNA fragmentation factor subunit alpha) → TNF reporter robust z-score: 0.43; outcome: inactive
DFFA (DNA fragmentation factor subunit alpha) → TNF reporter robust z-score: -0.33; outcome: inactive
DFFA (DNA fragmentation factor subunit alpha) → TNF reporter robust z-score: -0.19; outcome: inactive
DFFA (DNA fragmentation factor subunit alpha) → TNF reporter robust z-score: 0.63; outcome: inactive
PEA15 (proliferation and apoptosis adaptor protein 15) → TNF reporter robust z-score: -1.54; outcome: active
PEA15 (proliferation and apoptosis adaptor protein 15) → TNF reporter robust z-score: -1.35; outcome: inactive
PEA15 (proliferation and apoptosis adaptor protein 15) → TNF reporter robust z-score: -1.14; outcome: inactive
PEA15 (proliferation and apoptosis adaptor protein 15) → TNF reporter robust z-score: -0.73; outcome: inactive

A portion from the list above, as a working copy:
OTUD6B (OTU deubiquitinase 6B) → TNF reporter robust z-score: -0.75; outcome: inactive
RFFL → TNF reporter robust z-score: 1.35; outcome: inactive
RFFL → TNF reporter robust z-score: 1.06; outcome: inactive
RFFL → TNF reporter robust z-score: -1.47; outcome: inactive
RFFL → TNF reporter robust z-score: -0.88; outcome: inactive
